Measured values published in patent publication US20140275090A1, “BILE ACID RECYCLING INHIBITORS FOR TREATMENT OF PRIMARY SCLEROSING CHOLANGITIS AND INFLAMMATORY BOWEL DISEASE” (Lumena Pharmaceuticals, Inc., priority 2013, published 2014).

Experiment: Body weight, hamsters dosed 28 days
Assay type: in vivo, golden Syrian hamster
Conditions: hamster

CCCCC1(CCCC)CS(=O)(=O)c2ccc(N(C)C)cc2[C@@H](c2ccc(OCc3ccc(C[N+]45CCN(CC4)CC5)cc3)cc2)[C@H]1O [LUM001]
Body Weight (BW) (5 mg/kg/day Q.D. gavage): 130 ± 5 g
Body Weight (BW) (15 mg/kg/day Q.D. gavage): 136 ± 4 g
Body Weight (BW) (50 mg/kg/day Q.D. gavage): 130 ± 4 g
